Whole data set: some 33,000 sequences, median “E-score (-0.5 to 0.5)” near -0.016, cut for the highest 2% near 0.3. The list shows a part of the results.
Biological target: T1, Yer184c (UniProt P39961)
T1 sequence: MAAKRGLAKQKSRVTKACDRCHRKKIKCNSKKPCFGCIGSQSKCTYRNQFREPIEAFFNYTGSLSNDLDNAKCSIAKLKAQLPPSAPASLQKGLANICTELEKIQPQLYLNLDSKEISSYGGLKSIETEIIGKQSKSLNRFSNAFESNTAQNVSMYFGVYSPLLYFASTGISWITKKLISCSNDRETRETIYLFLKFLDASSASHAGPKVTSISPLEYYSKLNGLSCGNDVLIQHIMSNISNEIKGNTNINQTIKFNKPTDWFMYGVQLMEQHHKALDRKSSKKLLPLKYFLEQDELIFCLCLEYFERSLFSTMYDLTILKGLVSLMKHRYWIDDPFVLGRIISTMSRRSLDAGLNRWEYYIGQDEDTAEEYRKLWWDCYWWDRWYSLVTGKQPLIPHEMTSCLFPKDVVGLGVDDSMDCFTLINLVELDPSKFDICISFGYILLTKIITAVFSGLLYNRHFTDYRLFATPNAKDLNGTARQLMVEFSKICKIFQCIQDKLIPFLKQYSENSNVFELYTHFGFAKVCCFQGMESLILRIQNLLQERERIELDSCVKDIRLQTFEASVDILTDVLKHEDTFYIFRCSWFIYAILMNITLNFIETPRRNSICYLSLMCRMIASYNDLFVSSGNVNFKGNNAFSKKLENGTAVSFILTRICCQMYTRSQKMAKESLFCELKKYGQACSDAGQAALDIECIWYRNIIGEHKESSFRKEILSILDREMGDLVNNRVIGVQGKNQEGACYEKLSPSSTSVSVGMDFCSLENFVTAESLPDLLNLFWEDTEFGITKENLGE
Assay: PBM E-score (8-mer binding enrichment) (E-score (-0.5 to 0.5)); higher = stronger / more preferred TF binding
Settings: protein concentration: 100 nM; construct: GST-full length
Summary of the method: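 Universal all-10-mer Agilent arrays, fresh or stripped once, were converted to double-stranded form by primer extension. GST-tagged yeast transcription factors from PURExpress in vitro transcription/translation, full-length or DNA-binding domain only, were applied at about 100-200 nM and detected with fluorescent anti-GST. After masliner normalisation, the Universal PBM Analysis Suite scored each ungapped eight-base word together with its reverse complement by E-score.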

Sequence	PBM E-score
GAACTGAA	0.127
GCACTTAC	-0.169
TAAGGACA	0.0402
ACATAGAG	-0.206
CAGGAAGA	-0.00591
ACGTCTGA	0.118
ACAATGCT	-0.0491
CTGACACC	0.057
ACGGACCA	0.327
TGGATTAA	-0.0195
AGCCGAAA	0.364
CTCCCGTA	-0.158
CGCTGACA	0.0243
GGCTTGCA	0.0295
GTGCTAAC	0.135
AATTTACC	0.0679
GAAAGAAA	0.222
CAGTGACC	-0.294
CCTGCAAA	-0.261
GCTACTGA	-0.0406
AACGGTAA	0.0584
ACTCCCGA	0.0654
GTAGGGTA	-0.0746
GTAAGCAC	-0.0693
TACAAGAA	0.15

Sequence	PBM E-score
CCGGGCTA	0.137
CTAGTCAC	-0.252
CAGGGTAG	-0.257
AGTCTACG	-0.288
AGCAACAC	0.0607
GGTCCACC	-0.103
AGCTATCA	0.0965
GTCCAGAC	-0.323
CTAAGGCA	-0.0165
ACACGCGC	-0.0213
AATCGTAG	0.00492
CGTCCCAC	-0.148
CTCGAATA	-0.102
GAGTTGCA	0.0414
CCGCACAA	-0.0801
ATGCACCG	0.035
AAAGAATT	0.105
CTGCCCAA	-0.173
CACAGGTG	-0.225
GTTGACAA	0.145
AACTACCC	-0.156
ATACGTGC	-0.00198
AAGGTAGA	-0.0978
AGATTTAA	0.0597
CAACCATG	-0.0968

Sequence	PBM E-score
CCGCGGCA	0.409
AGCTTGAG	-0.0678
GTGGCTCA	-0.222
ATCTCCAG	-0.0032
CGCTTCCC	-0.0762
TAGTAGCA	-0.0252
AAAATCTG	0.168
AAAGCACC	-0.104
CGTATGAG	-0.00255
ATCTGTGA	0.119
GATGGGCA	-0.106
CAAGTCAA	-0.0933
TAATGCTA	0.107
ACAGTCCA	-0.0452
ACAAGAGG	-0.0454
GGTTCCTA	0.081
GATGGGAA	-0.192
CGCCCCGA	0.0207
AGGTTAAG	-0.122
CCCCAACA	-0.318
CCTGAAGG	-0.317
GCACAAAC	0.0449
GGCGAGCC	-0.0299
CGGTAACG	0.147
CGGCCTAA	0.207

Sequence	PBM E-score
CTAGCGAA	-0.134
AGATGAAA	0.108
CATCGATC	-0.171
CAGACGCA	-0.0829
GTGACGTA	-0.138
AGAGTTCG	0.0922
AGTTCCAG	-0.101
CGTAAGGA	-0.139
ATCGATGA	0.0134
CCTCTCCC	-0.237
ACCTACGA	-0.0808
CCAGTCGC	-0.0844
AGTGCCGC	0.123
CAGGCCTA	-0.0279
CACTGATA	-0.114
CCTCAGAA	-0.188
ATAAGATG	0.0593
ATACCACC	-0.0742
CATGCTAG	-0.139
CATATGTC	-0.091
CTCTATCC	-0.0872
GTCGACTA	0.192
CTTGCTCC	0.0248
GGTTCTAC	-0.0886
AATTCAAG	0.0925

Sequence	PBM E-score
ACTTGGGA	-0.0928
GCTCAAAA	0.199
ACCAGCAG	-0.299
CACTCTAC	-0.0363
TCAAACCA	0.0929
CGGTGGTC	-0.0197
ACATTCAT	0.00303
AGCCAGGA	-0.171
ATCGGGCA	-0.101
GGCTCACC	-0.166
TGCAACAA	0.148
GTATTAGA	0.149
GCGGAGCC	0.0549
AAGGAAAG	-0.121
CCCTTATA	-0.0606
CTCAAGTC	-0.22
AACGGGGC	-0.128
CTTGTGAA	-0.0589
AACGTCAA	0.0142
ATAGGACC	-0.156
AATATGGT	0.0409
AAACGCCA	0.089
CGTAGTCC	-0.207
AAGGTGCA	-0.0345
CTCATGCA	-0.206

Sequence	PBM E-score
TTATTAAA	0.233
GGCATGCC	0.257
AGTAGCCA	-0.302
ATTTTCTC	0.022
GATTGATA	0.0572
AGATTCGA	-0.0378
AAAGACCT	-0.0941
CATGCTGC	-0.208
CTGATAGA	0.166
ACAGGCAA	-0.0104
CATAGGGC	-0.273
GACGGGTA	-0.16
AGAGCGGC	-0.0082
ATATGATC	0.0489
ATTGCCAA	-0.0576
GTGAAGCA	-0.0446
GCCAAAGA	-0.222
AATGTGGA	-0.0334
CATTCAGG	-0.18
ACCGATGC	0.125
CAAGAGCG	-0.176
GTAGACAC	-0.00282
CGGTGTGA	0.13
GAATGCGC	0.16
ATGACTAA	-0.0122

Sequence	PBM E-score
CCTGGGGA	-0.391
CATGCGAG	-0.0852
GCTGAGCC	-0.0367
AGCTTCAG	-0.0447
AAGAAAGG	-0.0259
AGAAAATG	0.184
ACAGGGAT	-0.193
ATCGAAGC	0.0785
ACCAACCA	-0.147
CAGGGACC	-0.295
CGTCGTTC	0.229
CAGGTAAA	0.134
CACACCGA	0.192
ACATAACT	-0.133
GGTTGACA	-0.00887
GATACTGA	-0.0608
GCTGCTAC	-0.139
CCATCTAG	-0.222
CGTTTACA	0.0306
CCCATTAC	-0.229
GGGCCGAC	0.132
ACTCGGCG	0.325

Given comma-delimited: part of the list above.
Sequence,PBM E-score
AACGTCAA,0.0142
ATAGGACC,-0.156
AATATGGT,0.0409
AAACGCCA,0.089
CGTAGTCC,-0.207
AAGGTGCA,-0.0345
CTCATGCA,-0.206
TTATTAAA,0.233
GGCATGCC,0.257
AGTAGCCA,-0.302
ATTTTCTC,0.022
GATTGATA,0.0572
AGATTCGA,-0.0378
AAAGACCT,-0.0941
CATGCTGC,-0.208
CTGATAGA,0.166
ACAGGCAA,-0.0104
CATAGGGC,-0.273
GACGGGTA,-0.16
AGAGCGGC,-0.0082
ATATGATC,0.0489
ATTGCCAA,-0.0576
GTGAAGCA,-0.0446
GCCAAAGA,-0.222
AATGTGGA,-0.0334
CATTCAGG,-0.18
ACCGATGC,0.125
CAAGAGCG,-0.176
GTAGACAC,-0.00282
CGGTGTGA,0.13
GAATGCGC,0.16
ATGACTAA,-0.0122
CCTGGGGA,-0.391
CATGCGAG,-0.0852
GCTGAGCC,-0.0367
AGCTTCAG,-0.0447
AAGAAAGG,-0.0259
AGAAAATG,0.184
ACAGGGAT,-0.193
ATCGAAGC,0.0785
ACCAACCA,-0.147
CAGGGACC,-0.295
CGTCGTTC,0.229
CAGGTAAA,0.134
CACACCGA,0.192
ACATAACT,-0.133
GGTTGACA,-0.00887
GATACTGA,-0.0608
GCTGCTAC,-0.139
CCATCTAG,-0.222
CGTTTACA,0.0306
CCCATTAC,-0.229
